The assay concerns the target ScCdc31-6His (Saccharomyces cerevisiae centrin Cdc31) (Saccharomyces cerevisiae) (UniProt P06704). Put plainly: light microscopy of droplets in purified protein solutions; self-assembly into droplets; concentrated recombinant centrin (100-200 μM), 2 mM CaCl2 added, then 10 mM EDTA; 50 mM BisTris pH 7.1, 37°C; both purified.

These are yes or no findings as the source states them, for the method shown. Tags and fused reporters may be left off the sequences shown.

B1: ScCdc31-6His (Saccharomyces cerevisiae centrin Cdc31) (protein, UniProt P06704 1-161)
chain: MSKNRSSLQSGPLNSELLEEQKQEIYEAFSLFDMNNDGFLDYHELKVAMKALGFELPKREILDLIDEYDSEGRHLMKYDDFYIVMGEKILKRDPLDEIKRAFQLFDDDHTGKISIKNLRRVAKELGETLTDEELRAMIEEFDLDGDGEINENEFIAICTDS
B1: the binding result was “no binding (condition: with 10 mM EDTA)”.
